Experimental data published in patent US20180236026A1.
These are yes or no findings as the source states them, for the method shown. Binding seen in cells or lysates may run through a third protein. Some binding calls cover weakened binding; strength is not graded here. Sequences can lack the tags named with a protein.

By UniProt entry, the sequences of proteins in these tests, tags left out.
UniProt Q99683: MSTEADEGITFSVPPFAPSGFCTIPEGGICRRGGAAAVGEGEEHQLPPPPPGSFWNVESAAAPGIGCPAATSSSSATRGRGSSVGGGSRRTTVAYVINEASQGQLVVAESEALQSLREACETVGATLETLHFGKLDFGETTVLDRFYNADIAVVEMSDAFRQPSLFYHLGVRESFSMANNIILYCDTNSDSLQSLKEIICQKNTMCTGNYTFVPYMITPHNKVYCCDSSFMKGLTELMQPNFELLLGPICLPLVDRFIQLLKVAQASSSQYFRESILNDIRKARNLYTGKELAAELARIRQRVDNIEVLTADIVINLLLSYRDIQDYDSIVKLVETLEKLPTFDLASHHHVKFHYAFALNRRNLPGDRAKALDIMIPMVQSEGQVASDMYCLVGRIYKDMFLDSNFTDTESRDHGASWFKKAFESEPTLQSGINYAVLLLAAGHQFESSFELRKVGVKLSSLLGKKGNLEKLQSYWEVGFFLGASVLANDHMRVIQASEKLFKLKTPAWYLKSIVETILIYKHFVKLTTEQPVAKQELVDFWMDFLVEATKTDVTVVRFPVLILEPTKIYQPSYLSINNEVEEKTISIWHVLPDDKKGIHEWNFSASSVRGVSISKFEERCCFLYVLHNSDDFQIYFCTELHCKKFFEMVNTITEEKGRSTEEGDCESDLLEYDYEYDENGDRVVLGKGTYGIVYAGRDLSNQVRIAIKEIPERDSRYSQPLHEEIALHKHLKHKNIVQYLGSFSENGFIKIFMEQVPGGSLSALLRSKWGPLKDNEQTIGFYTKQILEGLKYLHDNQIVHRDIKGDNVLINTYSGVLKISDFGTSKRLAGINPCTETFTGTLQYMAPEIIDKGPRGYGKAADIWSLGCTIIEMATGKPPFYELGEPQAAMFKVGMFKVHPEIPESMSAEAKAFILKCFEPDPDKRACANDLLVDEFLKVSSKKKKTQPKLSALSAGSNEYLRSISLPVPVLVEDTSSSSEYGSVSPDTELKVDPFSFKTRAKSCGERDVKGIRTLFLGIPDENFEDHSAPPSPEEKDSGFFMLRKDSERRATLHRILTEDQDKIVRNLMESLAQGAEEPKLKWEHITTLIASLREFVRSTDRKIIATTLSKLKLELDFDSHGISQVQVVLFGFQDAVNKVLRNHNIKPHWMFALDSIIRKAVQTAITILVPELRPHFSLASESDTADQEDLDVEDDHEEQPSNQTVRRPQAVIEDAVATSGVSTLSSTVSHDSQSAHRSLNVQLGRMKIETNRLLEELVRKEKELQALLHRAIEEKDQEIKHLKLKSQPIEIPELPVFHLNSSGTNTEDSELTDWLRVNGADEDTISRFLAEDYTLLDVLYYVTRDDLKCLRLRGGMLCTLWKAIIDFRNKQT

Key:
MKK4 (purified) [1] = molecular target: T1, MKK4 (purified) (UniProt P45985); experiment: MBP pull-down, purified proteins
T1 sequence (looked up): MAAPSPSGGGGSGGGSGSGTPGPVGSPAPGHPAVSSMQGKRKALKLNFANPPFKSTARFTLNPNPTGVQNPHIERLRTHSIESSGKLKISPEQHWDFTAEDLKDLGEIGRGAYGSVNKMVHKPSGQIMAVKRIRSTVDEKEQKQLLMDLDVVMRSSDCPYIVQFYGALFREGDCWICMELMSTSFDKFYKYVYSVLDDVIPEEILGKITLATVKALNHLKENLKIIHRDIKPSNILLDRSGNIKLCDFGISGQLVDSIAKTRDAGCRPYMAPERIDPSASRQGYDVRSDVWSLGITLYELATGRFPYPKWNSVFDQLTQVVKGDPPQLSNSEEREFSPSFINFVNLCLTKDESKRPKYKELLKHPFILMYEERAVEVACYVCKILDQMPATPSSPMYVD

GST-MKK4 [2] = molecular target: T2, GST-MKK4 (UniProt P45985); experiment: MBP pull-down (summary of Example 1)
T2 sequence (looked up): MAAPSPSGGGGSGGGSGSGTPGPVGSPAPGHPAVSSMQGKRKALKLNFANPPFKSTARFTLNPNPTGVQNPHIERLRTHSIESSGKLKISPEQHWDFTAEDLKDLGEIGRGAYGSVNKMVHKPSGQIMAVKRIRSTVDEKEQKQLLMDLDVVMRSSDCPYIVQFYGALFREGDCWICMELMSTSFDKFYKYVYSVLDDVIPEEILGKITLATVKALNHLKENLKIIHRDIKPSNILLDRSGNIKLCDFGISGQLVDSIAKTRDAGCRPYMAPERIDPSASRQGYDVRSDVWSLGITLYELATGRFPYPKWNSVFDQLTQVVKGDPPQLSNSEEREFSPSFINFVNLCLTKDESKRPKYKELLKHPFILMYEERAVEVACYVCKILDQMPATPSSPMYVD

GST-MKK4 [3] = molecular target: T2, GST-MKK4; experiment: MBP pull-down on amylose beads, Western blot
GST-MKK4 [4] = molecular target: T2, GST-MKK4; experiment: MBP pull-down on amylose resin, purified proteins
MKK4 (purified) [5] = molecular target: T1, MKK4 (purified); experiment: MBP pull-down, purified proteins, Western blot quantified
MKK4 (purified) [6] = molecular target: T1, MKK4 (purified); experiment: MBP pull-down (summary of Example 1)
HA-ASK1 [7] = molecular target: HA-ASK1 (UniProt Q99683); experiment: co-immunoprecipitation (summary of Example 1)
HA-ASK1 [8] = molecular target: HA-ASK1 (UniProt Q99683); experiment: co-immunoprecipitation from cells with anti-GFP antibody
HA-ASK1 [9] = molecular target: HA-ASK1 (UniProt Q99683); experiment: co-immunoprecipitation from COS7 cells with anti-GFP antibody

Measured: binding

B1: MBP-T1A (peptide, not shown: large carriers)
chain: TLVPRGSPGFMGEKPGTRVFKKSSPNCKLTVYLGK
binds: MKK4 (purified) [1] | GST-MKK4 [2] | GST-MKK4 [3] | GST-MKK4 [4] | MKK4 (purified) [5]

B2: MBP-B1A (peptide, not shown: large carriers)
chain: TLVPRGSPGFMGDKGTRVFKKASPNGKLTVYLGK
binds: MKK4 (purified) [1] | MKK4 (purified) [6] | MKK4 (purified) [5]

B3: YFP-T1A (peptide, not shown: large carriers)
chain: MGEKPGTRVFKKSSPNCKLTVYLGK
binds: HA-ASK1 [7] | HA-ASK1 [8] | HA-ASK1 [9]
